Experimental findings from the supplement of paper PMC7024190 are described below.

Structures can show the parent of a compound that is named as a salt. The list shows a part of the results. This data set is noisy: repeats of one test often differ as much as different tests do.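 Human embryonic kidney cells were transiently transfected with a plasmid bearing a Renilla luciferase gene under the HSV-TK promoter. This first-round screen tests roughly ten thousand compounds for ones that increase reporter output.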

The assay deals with HEK 293FT. The assay is described as follows: log relative Renilla luciferase luminescence (reporter expression vs reference, reference not stated) (log (base not stated)); higher = higher recombinant reporter expression. As to conditions: 10 µM; time after transfection 48 h.
As to `OC(CCN1CCCCC1)(c1ccccc1)C1CC2C=CC1C2` (stereo not drawn) [Biperiden hydrochloride], the log is -0.0359.

For `Cc1ncc([N+](=O)[O-])n1CCO` [Metronidazole], the log was -0.443.

`CCN(CC)CC#CCOC(=O)C(O)(c1ccccc1)C1CCCCC1` (stereo not drawn) [Oxybutynin chloride]: the log stood at 0.0769.

Regarding `CN1C2CCCC1CC(NC(=O)c1nn(C)c3ccccc13)C2` (stereo not drawn) [Granisetron], the log was 0.02.

On to `CC(C)N1CCN(c2ccc(OCC3COC(Cn4cncn4)(c4ccc(Cl)cc4Cl)O3)cc2)CC1` (stereo not drawn) [Terconazole], for which the log turned out to be 0.02.

As to `Nc1nc(=S)c2ncn([C@@H]3O[C@H](CO)[C@@H](O)[C@H]3O)c2[nH]1` [Thioguanosine], the log was 0.0863.

Regarding `CC(C)NCC(O)COc1ccc(COCCOC(C)C)cc1` (stereo not drawn) [Bisoprolol fumarate], the log is -0.403.

As for `CC(=O)N[C@@H](CC(C)C)C(=O)O` [N-Acetyl-L-leucine], the log was found to be 0.0842.

Turning to `Nc1nc(=O)c2nc(CNc3ccc(C(=O)N[C@@H](CCC(=O)O)C(=O)O)cc3)cnc2[nH]1` [Folic acid], the log was -0.486.

On to `CC[C@H]1OC(=O)[C@H](C)[C@@H](O[C@H]2C[C@@](C)(OC)[C@@H](O)[C@H](C)O2)[C@H](C)[C@@H](O[C@@H]2O[C@H](C)C[C@H](N(C)C)[C@H]2O)[C@](C)(O)C[C@@H](C)/C(=N\OCOCCOC)[C@H](C)[C@@H](O)[C@]1(C)O` [Roxithromycin], for which the log was determined as 0.024.

Consider `Nc1nc(F)nc2c1ncn2[C@@H]1O[C@H](CO)[C@@H](O)[C@@H]1O` [Fludarabine], for which the log is -0.0681.

Turning to `Clc1ccc(C(Cn2ccnc2)OCc2c(Cl)cccc2Cl)c(Cl)c1` (stereo not drawn) [Isoconazole], the log was -0.00359.

Regarding `NC(=O)N1c2ccccc2C=Cc2ccccc21` [Carbamazepine], the log came to 0.16.

As to `CN(C)CCN(Cc1cccs1)c1ccccn1` [Methapyrilene hydrochloride], the log is -0.0838.

As to `COc1c(O[C@@H]2O[C@H](CO)[C@@H](O)[C@H](O)[C@H]2O)cc2c(c1OC)-c1ccc(SC)c(=O)cc1[C@@H](NC(C)=O)CC2` [Thiocolchicoside], the log came out at 0.0241.

Turning to `O=C(Cn1ccnc1[N+](=O)[O-])NCCO` [Etanidazole], the log is -0.0785.

For `CO[C@H]1/C=C/O[C@@]2(C)Oc3c(C)c(O)c4c(c3C2=O)C2=NC3(CCN(CC(C)C)CC3)NC2=C(NC(=O)/C(C)=C\C=C\[C@H](C)[C@H](O)[C@@H](C)[C@@H](O)[C@@H](C)[C@H](OC(C)=O)[C@@H]1C)C4=O` [Rifabutin], the log was 0.0422.

Regarding `Cc1scc2c1N(C(=O)CN1CCN(C)CC1)c1ccccc1NC2=O` [Telenzepine dihydrochloride], the log is -0.752.
